The results in this text go back to paper PMC10618106.

By UniProt entry, the sequences of proteins in these tests, tags left out.
UniProt P68400: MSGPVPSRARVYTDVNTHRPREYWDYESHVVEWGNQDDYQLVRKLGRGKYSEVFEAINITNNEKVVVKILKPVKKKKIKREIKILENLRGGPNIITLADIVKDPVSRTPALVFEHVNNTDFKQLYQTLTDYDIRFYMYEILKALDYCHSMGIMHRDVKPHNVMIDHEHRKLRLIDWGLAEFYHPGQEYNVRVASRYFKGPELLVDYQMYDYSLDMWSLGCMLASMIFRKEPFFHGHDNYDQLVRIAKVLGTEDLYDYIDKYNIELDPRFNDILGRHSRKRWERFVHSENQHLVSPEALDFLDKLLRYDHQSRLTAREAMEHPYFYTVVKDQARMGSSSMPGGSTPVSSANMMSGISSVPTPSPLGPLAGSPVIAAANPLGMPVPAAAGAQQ

These are yes or no findings as the source states them, for the method shown. Binding seen in cells or lysates may run through a third protein. A yes stands for co-enrichment or nearness to the bait. Other partners may have been found.

In this assay the target is FLAG-tagged CK2α (human) (UniProt P68400). Description: affinity purification with mass spectrometry; FLAG-CK2α expressed in HEK293; nuclear fractions of cells starved and restimulated with serum to early G1 (6 h) or late G1 (15-16 h); pre-cleared with normal IgG-agarose, anti-FLAG M2 agarose, eluted with FLAG peptide, trypsin, nano-LC MS/MS (Mascot).

B1: DDX18 (protein, UniProt Q9NVP1 1-670)
chain: MSHLPMKLLRKKIEKRNLKLRQRNLKFQGASNLTLSETQNGDVSEETMGSRKVKKSKQKPMNVGLSETQNGGMSQEAVGNIKVTKSPQKSTVLTNGEAAMQSSNSESKKKKKKKRKMVNDAEPDTKKAKTENKGKSEEESAETTKETENNVEKPDNDEDESEVPSLPLGLTGAFEDTSFASLCNLVNENTLKAIKEMGFTNMTEIQHKSIRPLLEGRDLLAAAKTGSGKTLAFLIPAVELIVKLRFMPRNGTGVLILSPTRELAMQTFGVLKELMTHHVHTYGLIMGGSNRSAEAQKLGNGINIIVATPGRLLDHMQNTPGFMYKNLQCLVIDEADRILDVGFEEELKQIIKLLPTRRQTMLFSATQTRKVEDLARISLKKEPLYVGVDDDKANATVDGLEQGYVVCPSEKRFLLLFTFLKKNRKKKLMVFFSSCMSVKYHYELLNYIDLPVLAIHGKQKQNKRTTTFFQFCNADSGTLLCTDVAARGLDIPEVDWIVQYDPPDDPKEYIHRVGRTARGLNGRGHALLILRPEELGFLRYLKQSKVPLSEFDFSWSKISDIQSQLEKLIEKNYFLHKSAQEAYKSYIRAYDSHSLKQIFNVNNLNLPQVALSFGFKVPPFVDLNVNSNEGKQKKRGGGGGFGYQKTKKVEKSKIFKHISKKSSDSRQFSH
On to B1, for which the binding entry is recorded as “binds”.

B2: TCOF1 (protein, UniProt Q13428 1-1488)
chain: MAEARKRRELLPLIYHHLLRAGYVRAAREVKEQSGQKCFLAQPVTLLDIYTHWQQTSELGRKRKAEEDAALQAKKTRVSDPISTSESSEEEEEAEAETAKATPRLASTNSSVLGADLPSSMKEKAKAETEKAGKTGNSMPHPATGKTVANLLSGKSPRKSAEPSANTTLVSETEEEGSVPAFGAAAKPGMVSAGQADSSSEDTSSSSDETDVEGKPSVKPAQVKASSVSTKESPARKAAPAPGKVGDVTPQVKGGALPPAKRAKKPEEESESSEEGSESEEEAPAGTRSQVKASEKILQVRAASAPAKGTPGKGATPAPPGKAGAVASQTKAGKPEEDSESSSEESSDSEEETPAAKALLQAKASGKTSQVGAASAPAKESPRKGAAPAPPGKTGPAVAKAQAGKREEDSQSSSEESDSEEEAPAQAKPSGKAPQVRAASAPAKESPRKGAAPAPPRKTGPAAAQVQVGKQEEDSRSSSEESDSDREALAAMNAAQVKPLGKSPQVKPASTMGMGPLGKGAGPVPPGKVGPATPSAQVGKWEEDSESSSEESSDSSDGEVPTAVAPAQEKSLGNILQAKPTSSPAKGPPQKAGPVAVQVKAEKPMDNSESSEESSDSADSEEAPAAMTAAQAKPALKIPQTKACPKKTNTTASAKVAPVRVGTQAPRKAGTATSPAGSSPAVAGGTQRPAEDSSSSEESDSEEEKTGLAVTVGQAKSVGKGLQVKAASVPVKGSLGQGTAPVLPGKTGPTVTQVKAEKQEDSESSEEESDSEEAAASPAQVKTSVKKTQAKANPAAARAPSAKGTISAPGKVVTAAAQAKQRSPSKVKPPVRNPQNSTVLARGPASVPSVGKAVATAAQAQTGPEEDSGSSEEESDSEEEAETLAQVKPSGKTHQIRAALAPAKESPRKGAAPTPPGKTGPSAAQAGKQDDSGSSSEESDSDGEAPAAVTSAQVIKPPLIFVDPNRSPAGPAATPAQAQAASTPRKARASESTARSSSSESEDEDVIPATQCLTPGIRTNVVTMPTAHPRIAPKASMAGASSSKESSRISDGKKQEGPATQVSKKNPASLPLTQAALKVLAQKASEAQPPVARTQPSSGVDSAVGTLPATSPQSTSVQAKGTNKLRKPKLPEVQQATKAPESSDDSEDSSDSSSGSEEDGEGPQGAKSAHTLGPTPSRTETLVEETAAESSEDDVVAPSQSLLSGYMTPGLTPANSQASKATPKLDSSPSVSSTLAAKDDPDGKQEAKPQQAAGMLSPKTGGKEAASGTTPQKSRKPKKGAGNPQASTLALQSNITQCLLGQPWPLNEAQVQASVVKVLTELLEQERKKVVDTTKESSRKGWESRKRKLSGDQPAARTPRSKKKKKLGAGEGGEASVSPEKTSTTSKGKAKRDKASGDVKEKKGKGSLGSQGAKDEPEEELQKGMGTVEGGDQSNPKSKKEKKKSDKRKKDKEKKEKKKKAKKASTKDSESPSQKKKKKKKKTAEQTV
As for B2, the binding entry was “binds”.

B3: UTP11 (protein, UniProt Q9Y3A2 1-253)
chain: MAAAFRKAAKSRQREHRERSQPGFRKHLGLLEKKKDYKLRADDYRKKQEYLKALRKKALEKNPDEFYYKMTRVKLQDGVHIIKETKEEVTPEQLKLMRTQDVKYIEMKRVAEAKKIERLKSELHLLDFQGKQQNKHVFFFDTKKEVEQFDVATHLQTAPELVDRVFNRPRIETLQKEKVKGVTNQTGLKRIAKERQKQYNCLTQRIEREKKLFVIAQKIQTRKDLMDKTQKVKVKKETVNSPAIYKFQSRRKR
For the molecule B3, the binding result is reported as “binds”.
